Laboratory results reported in ChEMBL document CHEMBL1148436, “Structural determinants for high 5-HT(2A) receptor affinity of spiro[9,10-dihydroanthracene]-9,3(')-pyrrolidine (SpAMDA)” (Bioorg Med Chem Lett, 2004).

Molecular target: Sodium-dependent noradrenaline transporter (Homo sapiens, UniProt P23975)
Assay: Binding affinity towards Norepinephrine transporter using [3H]nisoxitine as radioligand

## CN1CCC(=C2c3ccccc3C=Cc3ccccc32)CC1 [CYPROHEPTADINE]
  Ki: 290 nM
